Test results from patent US7368107B2, “Tumor antigen peptides derived from cyclophilin B” (Dainippon Sumitomo Pharma Co., Ltd., priority 1998, dated 2008).
Part of at least one peptide drawing is inferred or uncertain, most often the ends. Some entries repeat one wording, which the source may state once for all of them. Where no end group is shown, it is not given here.

Experiments:
RPMI8402 = experiment: Induction of CTL from peripheral blood lymphocytes by cyclophilin-derived peptides, 51Cr cytotoxic activity; type: cell-based, human; details: HLA-A24-negative RPMI8402
Excerpt: (§1) Lymphocytes were separated from peripheral blood of a healthy donor who was homozygous for A24 in the HLA-A locus using Ficoll method. […] The lymphocytes were harvested one week after the third stimulation, and measured for their cytotoxic activity using ^51Cr-labeled, HLA-A24-positive, T cell lymphoma-derived cell line KOPT-K1 and HLA-A24-negative, T cell leukemia-derived cell line RPMI8402 as target cells, according to the method described in D. D. Kharkevitch et al., Int.

KOPT-K1 = experiment: as above; type: cell-based, human; details: HLA-A24-positive KOPT-K1
Excerpt: as §1

| Sequence | Reaction of peptide-stimulated lymphocytes to target cells, in words (RPMI8402) | Reaction of peptide-stimulated lymphocytes to target cells, in words (KOPT-K1) |
| --- | --- | --- |
| TFHRVIPSF [Cyp-D“94-102”] | not to HLA-A24-negative RPM18402 | reacted to HLA-A24-positive KOPT-K1 |
| DFMIQGGDI [Cyp-C“89-97”] | not to HLA-A24-negative RPM18402 | reacted to HLA-A24-positive KOPT-K1 |
